# Source: US5126227A, “High contrast photographic elements containing ballasted hydrophobic isothioureas” (priority 1990, dated 1992)
# Tests used:
# [1] = Sensitometry (speed, practical density point/shoulder density) of nucleated silver halide film versus control without isothiourea; details: for Delta PDP (practical density point): Test PDP - Control PDP, density at 0.4 log E past speed point; for Delta Log Speed: versus control
# Procedure: (§1) Each coating used in obtaining the data provided in these examples was prepared on a polyester support, using a monodispersed 0.24 μm AgBrI (2.5 mol % iodide) iridium-doped emulsion at 3.51 g/m^2 Ag, 2.54 g gel/m^2, and 1.08 g latex/m^2 where the latex is a copolymer of methyl acrylate, 2-acrylamido-2-methylpropane sulfonic acid, and 2-acetoacetoxyethylmethylacrylate. The silver halide emulsion was spectrally sensitized with 214 mg/Ag mol of anhydro-5,5'-dichloro-9-ethyl-3,3'-di-(3-sulfopropyl) oxacarbocyanine hydroxide, triethylene salt and the emulsion layer was overcoated with gelatin containing polymethylmethacrylate beads. The nucleating agent was added as a methanol solution to the emulsion melts at a level of 0.75 millimoles (mM) per mole of silver. The compound employed as the nucleating agent is represented by the formula: [drawing 24]
# (§2) An "incorporated booster" was added as a methanol solution in an amount of 2 grams per mole of silver. The compound employed as the "incorporated booster" is represented by the formula: [drawing 25] where Pr represents n-propyl.
# (§3) Coatings were exposed for five seconds to a 3000° K. tungsten light source and processed for 1 minute at 35° C. in the developer solution.
# (§4) To prepare the developer solution, a concentrate was prepared from the following ingredients:
# (§5) The concentrate was diluted at a ratio of one part of concentrate to two parts of water to produce a working strength developing solution with a pH of 10.5.
# (§6) An electronic image analyzer was used to scan processed unexposed samples and count the number of pepper fog spots (>10 micrometer diameter) contained in an area of 600 square millimeters. Standard sensitometry exposures were processed and analyzed to monitor speed and shoulder density effects.
# (§7) In each of examples 1, 6, 7 and 8, the isothiourea was employed in the form of the free base, in examples 3, 4, 5, 9, 10, 11, 12, 13, 14, 15, 16 and 17 in the form of the hydrobromide salt, and in example 2 in the form of the dihydrochloride salt. In comparative tests A to D, the isothiourea was employed in the form of the hydrobromide salt and in comparative tests E to H in the form of the free base.
# (§8) Sensitometry parameters are expressed in Table I in terms of the change produced by incorporation of the isothiourea compound versus the control which contained no isothiourea compound and was processed under identical conditions. Values are reported for speed, practical density point (PDP) and pepper fog (PF). Therefore, the changes in speed, practical density point and pepper fog produced by the isothiourea compound are directly recorded in the table. By definition, the delta log speed, delta PDP and delta log PF for the control are zero.
# [2] = Pepper fog spot count by electronic image analyzer on processed unexposed samples; details: versus control; for Delta Log PF (pepper fog): spots >10 micrometer in 600 square millimeters
# Procedure: as §1, §2, §3, §4, §5, §6, §7, §8
# [3] = Image spread: rate of halftone dot diameter growth during development; details: first 60 seconds of development, control 0.68
# Procedure: as §1, §2, §3, §4, §5
# Certain of the films were analyzed for the effect upon image spread of the incorporated isothiourea compound. The rate of change of halftone dot diameter with processing time was determined by monitoring the change in integrated density of a contact-exposed 10% tint pattern during the first 60 seconds of development and converting the integrated density to equivalent dot size.
# [4] = 1.0 millimoles isothiourea per mole of silver
# [5] = 1.0 millimoles per mole of silver
# [6] = 0.4 millimoles isothiourea per mole of silver
# [7] = 0.5 millimoles isothiourea per mole of silver
Structure (SMILES),"Delta PDP (practical density point) [1, 4]","Delta Log Speed [1, 4]","Delta Log PF (pepper fog) [2, 4]","Dot Growth Rate [3, 5]",other results
"N=C(N)SCCCCCCCCCCC(=O)O [Comparative test A, reference compound]",+0.06,0.00,-0.01,–,–
"CCCCSC(=N)N [Comparative test B, reference compound]",-0.17,-0.05,+0.06,–,–
"CCCCSC(=NCC)NCC [Comparative test C, reference compound]",-0.05,+0.01,+0.05,0.62 micron/sec,–
"CCCCN=C(NCCCC)SCCCC [Comparative test D, reference compound]",+0.27,+0.02,+0.16,0.64 micron/sec,–
"N=C(N)SCCS(=O)(=O)O [Comparative test E, reference compound]",-0.10,0.00,-0.45,–,–
"N=C(N)SCCCS(=O)(=O)O [Comparative test F, reference compound]",+0.08,+0.02,-0.04,–,–
"N=C(N)SCCCCS(=O)(=O)O [Comparative test G, reference compound]",+0.13,-0.01,-0.08,–,–
"CC(CCSC(=N)N)S(=O)(=O)O (centres unmarked) [Comparative test H, reference compound]",+0.15,-0.01,-0.12,–,–
CCCCOCCOCCOCCOCCSC(=N)N [Example 1],-0.11,-0.01,-0.17,–,reduction of the number of pepper fog spots [2]: about three
CCCCN(CCCC)CCSC(=N)N [Example 2],-0.36,-0.11,-2.04,–,"Delta PDP (practical density point) [1, 6]: -0.29; Delta Log Speed [1, 6]: -0.08; Delta Log PF (pepper fog) [2, 6]: -0.87; reduction of the number of pepper fog spots [2]: about one hundred"
CCCCCCCCSC(=N)N [Example 3],+0.08,0.00,-0.63,0.51 micron/sec,–
CCCCCCCCCCCCSC(=N)N [Example 4],–,-0.03 and -0.08,-1.46 and -1.16,0.40 micron/sec,"Delta PDP (practical density point) [1, 6]: -0.09; Delta Log Speed [1, 6]: -0.04; Delta Log PF (pepper fog) [2, 6]: -0.56"
CCOC(=O)CCCCCCCCCCSC(=N)N [Example 5],+0.33,-0.05,-0.79,–,–
CCCCCCOCCOCCOCCOCCSC(=N)N [Example 6],-0.24,-0.05,-0.41,–,–
CCCCCCCCOCCOCCOCCOCCSC(=N)N [Example 7],-0.27,-0.02,-0.58,–,–
CCCCCCCCCCOCCOCCOCCOCCSC(=N)N [Example 8],-0.43,-0.03,-0.47,–,–
N=C(N)SCc1c(Cl)cccc1Cl [Example 9],+0.25,-0.02,-0.52,0.47 micron/sec,–
CC(C)(C)c1ccc(CSC(=N)N)cc1 [Example 10],+0.01,-0.02,-0.55,0.53 micron/sec,–
Cc1cc(C)c(S(=O)(=O)NCCSC(=N)N)c(C)c1 [Example 11],+0.12,-0.07,-0.65,0.50 micron/sec,–
Cc1cc(C)c(S(=O)(=O)NCCCSC(=N)N)c(C)c1 [Example 12],-0.12,-0.04,-0.49,0.57 micron/sec,–
CC(C)c1cc(C(C)C)c(S(=O)(=O)NCCSC(=N)N)c(C(C)C)c1 [Example 13],–,-0.08 and -0.09,-1.18 and -1.07,0.47 micron/sec,"Delta PDP (practical density point) [1, 6]: +0.02; Delta Log Speed [1, 6]: -0.04; Delta Log PF (pepper fog) [2, 6]: -0.46"
CC(C)c1cc(C(C)C)c(S(=O)(=O)NCCCSC(=N)N)c(C(C)C)c1 [Example 14],+0.11,-0.09,-0.96,0.50 micron/sec,"Delta PDP (practical density point) [1, 6]: -0.11; Delta Log Speed [1, 6]: -0.05; Delta Log PF (pepper fog) [2, 6]: -0.43"
N=C(N)SCCCCCCCCCCSC(=N)N [Example 15],–,–,–,–,"Delta PDP (practical density point) [1, 7]: +0.23; Delta Log Speed [1, 7]: -0.05; Delta Log PF (pepper fog) [2, 7]: -0.57; Dot Growth Rate ([3]; 0.5 millimoles per mole of silver): 0.51 micron/sec"
CCCCCCCCCCCCCCCCSC(=N)N [Example 16],-0.18,-0.07,-1.46,–,–
N=C(N)SCCCCCCCCCCCCSC(=N)N [Example 17],–,–,–,–,"Delta PDP (practical density point) [1, 7]: -0.07; Delta Log Speed [1, 7]: -0.04; Delta Log PF (pepper fog) [2, 7]: -0.59"

# Where “and” joins values, the source holds several entries; their conditions need not be identical. Equal entries are not always repeated.
